The values that follow come from the supplement of paper PMC6411743.

By UniProt entry, the sequences of proteins in these tests, tags left out. Where a name states a change or a piece, a line headed by the entry shows the natural chain unless it says otherwise.
UniProt Q8IWE5: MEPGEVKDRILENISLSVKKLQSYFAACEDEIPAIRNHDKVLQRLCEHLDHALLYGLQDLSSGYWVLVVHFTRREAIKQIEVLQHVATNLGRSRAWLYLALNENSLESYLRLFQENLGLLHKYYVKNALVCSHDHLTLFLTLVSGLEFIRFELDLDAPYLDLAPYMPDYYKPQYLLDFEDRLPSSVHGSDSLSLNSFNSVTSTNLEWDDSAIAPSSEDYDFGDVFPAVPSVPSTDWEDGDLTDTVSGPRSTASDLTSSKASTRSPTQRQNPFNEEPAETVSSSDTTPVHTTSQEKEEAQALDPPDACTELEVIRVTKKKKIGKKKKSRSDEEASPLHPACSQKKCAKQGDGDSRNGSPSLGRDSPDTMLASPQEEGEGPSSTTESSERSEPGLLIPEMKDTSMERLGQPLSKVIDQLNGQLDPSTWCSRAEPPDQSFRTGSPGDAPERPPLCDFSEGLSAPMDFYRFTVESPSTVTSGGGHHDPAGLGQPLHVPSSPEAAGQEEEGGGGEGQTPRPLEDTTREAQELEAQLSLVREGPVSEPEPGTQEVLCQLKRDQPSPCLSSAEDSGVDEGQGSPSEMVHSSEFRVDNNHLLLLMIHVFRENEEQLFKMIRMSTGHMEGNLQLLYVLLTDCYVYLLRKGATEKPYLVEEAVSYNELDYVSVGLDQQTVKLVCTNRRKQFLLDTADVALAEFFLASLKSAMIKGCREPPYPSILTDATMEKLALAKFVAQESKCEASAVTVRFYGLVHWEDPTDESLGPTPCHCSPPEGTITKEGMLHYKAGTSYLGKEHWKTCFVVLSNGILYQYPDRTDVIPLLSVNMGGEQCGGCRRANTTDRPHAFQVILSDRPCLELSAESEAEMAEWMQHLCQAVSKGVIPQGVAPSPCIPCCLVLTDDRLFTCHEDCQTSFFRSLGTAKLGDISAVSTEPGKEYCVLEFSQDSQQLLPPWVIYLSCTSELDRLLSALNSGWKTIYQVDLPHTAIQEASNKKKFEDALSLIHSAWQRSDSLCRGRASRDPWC
UniProt Q68EM7: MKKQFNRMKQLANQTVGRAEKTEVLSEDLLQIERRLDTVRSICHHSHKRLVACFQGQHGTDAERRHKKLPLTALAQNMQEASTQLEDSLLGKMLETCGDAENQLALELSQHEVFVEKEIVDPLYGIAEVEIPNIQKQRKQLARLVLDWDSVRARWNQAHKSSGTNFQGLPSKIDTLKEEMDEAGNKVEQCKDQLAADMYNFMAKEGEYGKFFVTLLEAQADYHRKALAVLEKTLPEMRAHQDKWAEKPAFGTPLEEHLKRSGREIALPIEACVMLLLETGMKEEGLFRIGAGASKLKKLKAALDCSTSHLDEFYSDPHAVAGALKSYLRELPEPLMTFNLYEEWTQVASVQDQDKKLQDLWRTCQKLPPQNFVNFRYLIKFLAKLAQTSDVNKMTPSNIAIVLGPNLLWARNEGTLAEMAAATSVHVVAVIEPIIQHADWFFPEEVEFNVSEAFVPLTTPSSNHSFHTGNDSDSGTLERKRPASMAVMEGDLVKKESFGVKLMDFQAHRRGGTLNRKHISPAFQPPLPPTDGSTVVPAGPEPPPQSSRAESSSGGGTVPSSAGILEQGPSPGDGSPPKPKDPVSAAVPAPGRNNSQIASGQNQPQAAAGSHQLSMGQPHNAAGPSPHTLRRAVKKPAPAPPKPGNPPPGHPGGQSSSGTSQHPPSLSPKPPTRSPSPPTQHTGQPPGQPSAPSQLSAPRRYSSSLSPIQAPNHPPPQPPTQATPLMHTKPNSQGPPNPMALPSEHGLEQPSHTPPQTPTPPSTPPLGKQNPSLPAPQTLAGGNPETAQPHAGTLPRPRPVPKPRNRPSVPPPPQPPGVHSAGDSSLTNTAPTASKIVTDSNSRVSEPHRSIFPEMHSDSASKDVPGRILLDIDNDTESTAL
UniProt Q7Z5R6: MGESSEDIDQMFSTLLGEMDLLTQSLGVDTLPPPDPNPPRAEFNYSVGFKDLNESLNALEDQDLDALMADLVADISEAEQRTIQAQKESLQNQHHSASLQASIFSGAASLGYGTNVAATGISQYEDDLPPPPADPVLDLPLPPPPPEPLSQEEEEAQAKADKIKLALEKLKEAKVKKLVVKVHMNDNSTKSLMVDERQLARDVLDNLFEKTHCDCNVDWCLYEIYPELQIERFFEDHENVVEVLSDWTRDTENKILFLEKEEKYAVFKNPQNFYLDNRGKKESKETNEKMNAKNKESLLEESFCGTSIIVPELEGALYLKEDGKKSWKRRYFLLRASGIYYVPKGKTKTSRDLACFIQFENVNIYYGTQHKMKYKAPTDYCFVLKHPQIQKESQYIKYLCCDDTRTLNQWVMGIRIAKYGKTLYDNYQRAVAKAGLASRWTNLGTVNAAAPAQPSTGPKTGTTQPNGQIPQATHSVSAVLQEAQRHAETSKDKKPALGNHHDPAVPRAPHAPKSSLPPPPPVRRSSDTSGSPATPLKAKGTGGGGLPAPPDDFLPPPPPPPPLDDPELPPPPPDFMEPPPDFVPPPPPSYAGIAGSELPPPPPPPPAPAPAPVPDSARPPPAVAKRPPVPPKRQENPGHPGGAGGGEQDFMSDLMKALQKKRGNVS
UniProt Q7Z4H7: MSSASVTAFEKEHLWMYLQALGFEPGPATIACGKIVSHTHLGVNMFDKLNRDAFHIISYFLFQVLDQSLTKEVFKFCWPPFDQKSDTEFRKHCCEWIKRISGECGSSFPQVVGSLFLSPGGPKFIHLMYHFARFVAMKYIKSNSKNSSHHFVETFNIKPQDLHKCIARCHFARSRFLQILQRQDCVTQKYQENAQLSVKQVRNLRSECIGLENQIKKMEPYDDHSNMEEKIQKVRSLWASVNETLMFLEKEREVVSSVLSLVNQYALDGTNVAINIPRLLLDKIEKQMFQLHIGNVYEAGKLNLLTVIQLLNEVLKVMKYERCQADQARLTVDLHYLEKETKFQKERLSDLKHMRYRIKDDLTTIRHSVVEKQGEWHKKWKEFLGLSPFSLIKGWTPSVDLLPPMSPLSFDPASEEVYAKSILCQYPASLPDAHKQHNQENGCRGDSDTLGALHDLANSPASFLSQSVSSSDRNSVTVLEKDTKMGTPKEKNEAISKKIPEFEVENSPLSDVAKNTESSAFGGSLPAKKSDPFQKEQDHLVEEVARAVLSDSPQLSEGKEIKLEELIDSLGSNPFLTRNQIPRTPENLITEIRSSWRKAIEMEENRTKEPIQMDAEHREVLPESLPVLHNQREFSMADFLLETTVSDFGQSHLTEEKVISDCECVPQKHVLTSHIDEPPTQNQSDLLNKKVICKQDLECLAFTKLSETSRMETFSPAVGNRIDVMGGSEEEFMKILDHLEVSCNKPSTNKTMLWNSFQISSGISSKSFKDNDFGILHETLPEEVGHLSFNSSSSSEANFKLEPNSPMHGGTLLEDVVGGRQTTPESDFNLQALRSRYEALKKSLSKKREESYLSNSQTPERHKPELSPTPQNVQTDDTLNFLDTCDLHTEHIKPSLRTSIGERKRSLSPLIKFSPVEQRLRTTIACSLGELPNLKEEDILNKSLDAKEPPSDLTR
UniProt Q7RTV0, whole entry, looked up: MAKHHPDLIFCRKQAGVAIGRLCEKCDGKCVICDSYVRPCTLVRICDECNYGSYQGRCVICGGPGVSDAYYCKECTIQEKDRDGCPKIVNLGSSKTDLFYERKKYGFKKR

Compound in the assay: Nc1nc2c(ncn2[C@@H]2O[C@H](COP(=O)(O)OP(=O)(O)OP(=O)(O)O)[C@@H](O)[C@H]2O)c(=O)[nH]1 [guanosine triphosphate]
Briefly: NP40-soluble protein abundance relative to vehicle (solubility fold change) (ratio); higher = more soluble protein in presence of GTP. How it is done: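 Solubility proteome profiling in Jurkat crude lysate. Lysate was treated with Mg-GTP (0.1-10 mM) for 10 min at room temperature and 3 min at 37 °C, then solubilised with 0.8% NP40 and benzonase, followed by ultracentrifugation. Proteins were quantified by TMT10 LC-MS/MS; the value is the NP40-soluble abundance relative to the NP40-processed vehicle, from 3 independent experiments.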

± gives the standard deviation of the averaged measurements. The list shows a part of the results.

As for “Q5VVD7 and related entries (UniProt Q8IWE5)”, the NP40-soluble protein abundance amounted to 0.854 ± 0.078 (concentration: 0.1mM); 0.901 ± 0.087 (concentration: 0.5mM); 0.831 ± 0.12 (concentration: 1mM); 0.868 ± 0.13 (concentration: 2mM); 0.818 ± 0.045 (concentration: 4mM); 0.885 ± 0.11 (concentration: 6mM). Further, the NP40-soluble protein abundance runs as follows: (concentration: 8mM) 0.821 ± 0.044; (concentration: 10mM) 0.871 ± 0.075.
On to UniProt Q68EM7 and related entries, for which the NP40-soluble protein abundance reads like this: (concentration: 0.1mM) 0.985 ± 0.052; (concentration: 0.5mM) 0.945 ± 0.032; (concentration: 1mM) 0.966 ± 0.057; (concentration: 2mM) 0.917 ± 0.013; (concentration: 4mM) 0.935 ± 0.039; (concentration: 6mM) 0.912 ± 0.028. Moreover, the NP40-soluble protein abundance (concentration: 8mM) turned out to be 0.937 ± 0.079 and the NP40-soluble protein abundance (concentration: 10mM) was 0.923 ± 0.044.
With APBB1IP (UniProt Q7Z5R6), the NP40-soluble protein abundance reads like this: (concentration: 0.1mM) 0.985 ± 0.038; (concentration: 0.5mM) 0.945 ± 0.029; (concentration: 1mM) 0.918 ± 0.038; (concentration: 2mM) 0.931 ± 0.059; (concentration: 4mM) 0.906 ± 0.065; (concentration: 6mM) 0.923 ± 0.067. Besides, the NP40-soluble protein abundance (concentration: 8mM) came out at 0.89 ± 0.05 and the NP40-soluble protein abundance (concentration: 10mM) came to 0.874 ± 0.068.
“Q5VY60 and related entries (UniProt Q7Z4H7)”: the NP40-soluble protein abundance reads like this: (concentration: 0.1mM) 1.01 ± 0.024; (concentration: 0.5mM) 0.986 ± 0.037; (concentration: 1mM) 0.976 ± 0.021; (concentration: 2mM) 0.99 ± 0.023; (concentration: 4mM) 0.975 ± 0.025; (concentration: 6mM) 0.986 ± 0.044. Besides, the NP40-soluble protein abundance is, setting by setting: (concentration: 8mM) 1.02 ± 0.043; (concentration: 10mM) 0.983 ± 0.028.
On to UniProt Q7RTV0, for which the NP40-soluble protein abundance was 1.06 ± 0.088 (concentration: 0.1mM); 1.11 ± 0.1 (concentration: 0.5mM); 1.09 ± 0.094 (concentration: 1mM); 1.07 ± 0.1 (concentration: 2mM); 1.1 ± 0.12 (concentration: 4mM); 1.16 ± 0.096 (concentration: 6mM). Also, the NP40-soluble protein abundance by setting is: (concentration: 8mM) 1.19 ± 0.13; (concentration: 10mM) 1.19 ± 0.16.
